Reference: PMC11721465
Where a chain is given by its changes, count along the chain named. Names may count otherwise. No constants are given. Whether binding was seen depends on the method and setting. Some binding calls cover weakened binding; strength is not graded here.

Tests used:
[1] = biological target: T1, TREM2 (19–134) WT, biotinylated (human) (UniProt Q9NZC2); test: BLI; sequential competition: biotinylated TREM2 WT on SA biosensors dipped into a first ligand or no ligand, then buffer, then a second ligand; binding of the second ligand = response at end minus beginning of Association 2; both purified
T1 sequence (chain, biotin on the C-terminal BirA biotinylation sequence (enzymatic, BirA)): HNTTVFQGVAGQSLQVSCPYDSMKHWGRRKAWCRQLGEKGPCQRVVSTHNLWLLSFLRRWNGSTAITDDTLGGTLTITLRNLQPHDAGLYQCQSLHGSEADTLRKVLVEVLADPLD

[2] = biological target: T2, TREM2 (19–134) R76D, biotinylated (human) (UniProt Q9NZC2); test: BLI; biotinylated TREM2 WT or variant immobilised on SA biosensors; IL-34 62.5–1000 nM; PBS with 0.1% BSA and 0.005% Tween-20; 1:1 kinetic fits; both purified
T2 sequence (chain, biotin on the C-terminal BirA biotinylation sequence (enzymatic, BirA)): T1 sequence (chain, biotin on the C-terminal BirA biotinylation sequence (enzymatic, BirA)) with R58D

[3] = biological target: sTREM2 (19–157) WT (human) (UniProt Q9NZC2); test: SEC-MALS; 10 µL of sTREM2 WT at 2 mg/mL on a Superdex 200 Increase 5/150 GL column; both purified
[4] = biological target: sTREM2 (19–157) L69D/L71D (human) (UniProt Q9NZC2); test: SEC; elution volumes of sTREM2 variants compared with WT (Supplemental Fig. 3); both purified
[5] = biological target: sTREM2 (19–157) W44D/L69D/L71D (human) (UniProt Q9NZC2); test: as above

B1: Human IL-34 (19–241) (ligand, UniProt Q6ZMJ4 19-241)
chain: LGNEPLEMWPLTQNEECTVTGFLRDKLQYRSRLQYMKHYFPINYKISVPYEGVFRIANVTRLQRAQVSERELRYLWVLVSLSATESVQDVLLEGHPSWKYLQEVETLLLNVQQGLTDVEVSPKVESVLSLLNAPGPNLKLVRPKALLDNCFRVMELLYCSCCKQSSVLNWQDCEVPSPQSCSPEPSLQYAATQLYPPPPWSPSSPPHSTGSVRPVRAQGEGLL
For B1, the binding [1] was “binds” and the binding [2] was “no binding (tested: 62.5–1000 nM)”.

B2: sTREM2 (19–157) WT (domain or fragment, UniProt Q9NZC2 19-157)
chain: HNTTVFQGVAGQSLQVSCPYDSMKHWGRRKAWCRQLGEKGPCQRVVSTHNLWLLSFLRRWNGSTAITDDTLGGTLTITLRNLQPHDAGLYQCQSLHGSEADTLRKVLVEVLADPLDHRDAGDLWFPGESESFEDAHVEH
In the case of B2, the binding [3] is reported as “no binding (tested: 2 mg/mL)”.

B3: sTREM2 (19–157) L69D/L71D (domain or fragment, UniProt Q9NZC2 19-157)
chain: B2 chain with L51D, L53D
In the case of B3, the binding [4] is reported as “no binding”.

B4: sTREM2 (19–157) W44D/L69D/L71D (domain or fragment, UniProt Q9NZC2 19-157)
chain: B2 chain with W26D, L51D, L53D
In the case of B4, the binding [5] is reported as “no binding”.
